The source of these data is publication PMC8967839.

No constants are given. Whether binding was seen depends on the method and setting. In cells and extracts the contact can be indirect. These calls come from enrichment with a bait or labelling near it, and not all partners need be listed.

This assay concerns the target anaCyp40 with C-terminal Strep-tag (Anabaena sp. PCC 7120). The assay can be described thus: affinity purification with mass spectrometry; Strep-tagged anaCyp40 from whole cell lysate of AFS-anacyp40-strep (1% β-DM, 100 mM Tris pH 8.0, 50 mM NaCl) on MagStrep type3 XT beads, 60 min at 4 °C; washes up to 100 mM NaCl and 0.5% Nonidet P-40; eluted with 50 mM D-biotin; wild-type Anabaena sp. as control; lysate not treated with RNAse or DNAse; LC-MS, p < 0.05.

B1: ApcE (protein, UniProt P80559 1-1132)
chain: MSVKASGGSSVARPQLYQTLAVATITQAEQQDRFLGRGELDELASYFASGAKRLEIAQLLTENSEIIVSRAANRIFVGGSPMAFLEKPREPELAMAAVGGGGDVRESMKLGTVTYVETRGGFLENLRSIFNTSPSGPTPPGFRPINIARYGPSNMAKSLRDLSWFLRYATYAIVAGDPNIIVVNTRGLREIIENACSGEATIVALQEIKAASLSYFRKDPEAAEIVSQYMDVLITEFKAPTPSNKLRQRPSGDQQGLQLPQIYFSAAERRPKFVMKTGLSATEKNEVIKAAYRQIFERDITRAYSLSISDLESKVKNGDISMKEFVRRLAKSPLYQKQFYQPFINSRVIELAFRHILGRGPSSREEVQKYFSIISNGGLPALVDALVDSAEYSDYFGEETVPYLRGLGQEAQECRNWGPQQDLFNYSAPFRKVPQFITTFAAYDRPLPDQHPYGSGNDPLEIQFGAIFPKETRNPSTSPAPFGKDTRRILIHQGPGINNQVSNPSARGLAPGSLGPKVFKLDQLPGTIGKKAAKGASVKFSESSTQAVIKATYLQVFGRDVYEGQRLKVQEIKLENGEISVRDFVRALAKSDLFRKLYWTPFYVCKAIEYIHRRLLGRPTYGRQENNKYFDIASKKGLYAVVDAILDSLEYTETFGEDTVPYERYLTPAGVALRQLRVGTIREDVANVEKQETPRFVELGTVKENRTQPDIDFRINQGVTKQREQTKVFKRVAGIKDKAAIKTLISAAYRQIFERDIAPYIAQNEFSGWESKLGNGEITVKEFIEGLGYSNLYLKEFYTPYPNTKVIELGTKHFLGRAPIDQAEIRKYNQILATQGIRAFINALVNSQEYNEVFGEDTVPYRRFPTLPAANFPNTQKLYNQLTKQNNDVVIPSFKPVQARIQSDKTPILAKAIADLAAQAKQMDKSKPLFIELGRSYNDGRGQSVEVGVGTTRRKPARIYRLTNGIGQAEKQLVINAIYRQVLDVFSGQVPDYYRRTELDSKLRNGEISVREFVREIASSEIYRKRFYTPYPNTKVIEFLFRHLLGRAPATQGEIRQYNKLLADNGLRAAVEAIVDSPEYSRYFGEDVVPYPRFPSLPAGNYLGSVQAAADLVKQSWSSLSPSTLTGRPGDR
As for B1, the binding entry was “binds”.

B2: InfC (protein, UniProt Q8YNE3 1-177)
chain: MPVIEKKRTRDLPQINERIRFPKIRVIDTDGSQLGILTPQEALQLAEEKELDLVLLSDKADPPVCRIMDYGKYKFEQEKKAREARKKQHTADVKEVKMRYKIEEHDYNVRVKQAERFLKDGDKVKATVMFRGREIQHSDLAEDLLKRMATDLEPFGEVQQAPKKEGRNMMMLISPKK
Turning to B2, the binding entry is reported as “binds”.

B3: L14 (protein, UniProt Q8YPI9 1-122)
chain: MIQPQTYLNVADNSGARKLMCIRVLGAGNSRYGFIGDKIIAVVKDATPNMAVKKSDVVEAVIVRTRHHIRRDSGMTIRFDDNAAVIINKDGNPRGTRVFGPVARELRDKNFTKIVSLAPEVL
Regarding B3, the binding entry is “binds”.

B4: AtpC (protein, UniProt P12408 1-315)
chain: MPNLKSIRDRIQSVKNTKKITEAMRLVAAARVRRAQEQVIATRPFADRLAQVLYGLQTRLRFEDVDLPLLKKREVKSVGLLVISGDRGLCGGYNTNVIRRAENRAKELKAEGLDYTFVIVGRKAEQYFRRREQPIDASYTGLEQIPTADEANKIADELLSLFLSEKVDRIELVYTRFVSLVSSRPVIQTLLPLDTQGLEAADDEIFRLTTRGGQFQVERQTVTSQARPLPRDMIFEQDPVQILDSLLPLYLSNQLLRALQESAASELAARMTAMSNASENAGELIKSLSLSYNKARQAAITQELLEVVGGAEALT
With B4, the binding entry is on record as “binds”.

B5: ApcB (protein, UniProt P80557 1-162)
chain: MAQDAITAVINSADVQGKYLDTAALEKLKAYFSTGELRVRAATTISANAAAIVKEAVAKSLLYSDITRPGGNMYTTRRYAACIRDLDYYLRYATYAMLAGDPSILDERVLNGLKETYNSLGVPVGATVQAIQAIKEVTASLVGADAGKEMGIYLDYISSGLS
Regarding B5, the binding result is recorded as “binds”.

B6: ApcC (protein, UniProt P80558 1-68)
chain: MSRLFKITALVPSLSRTRTQRELQNTYFTKLVPYENWFREQQRIQKAGGKIIKVELATGKQGTNAGLQ
On to B6, for which the binding result was “binds”.

B7: AtpD (protein, UniProt P06540 1-482)
chain: MVTTAEKTNIGYITQIIGPVVDVKFPNGKLPQIYNALTIKGTNEAGQQLNLTVEVQQLLGDNQIRAVAMSSTDGLVRGLEVVDTGAPISVPVGKATLGRIFNVLGEPVDNRGPVNNQETLPIHRPAPKLTELETKPSVFETGIKVVDLLTPYRRGGKIGLFGGAGVGKTVIMMELINNIATQHGGVSVFAGVGERTREGNDLYNEMIESGVINNENLNESKIALVYGQMNEPPGARMRVGLSGLTMAEYFRDVNKQDVLLFIDNIFRFVQAGSEVSALLGRMPSAVGYQPTLGTDVGQLQERITSTTEGSITSIQAVYVPADDLTDPAPATTFAHLDGTTVLSRGLASKGIYPAVDPLGSTSTMLQPNIVGDEHYNTARAVQSTLQRYKELQDIIAILGLDELSEEDRLIVARARKVERFLSQPFFVAEVFTGSPGKYVKLEDTIKGFQKILSGELDDLPEQAFYLVGDINEAIAKAEKIKG
With B7, the binding entry was “binds”.

B8: CcmM (protein, UniProt Q8YYI3 1-555)
chain: MAVRSTAAPPTPWSRSLAEAQIHESAFVHPFSNIIGDVHIGANVIIAPGTSIRADEGTPFHIGENTNIQDGVVIHGLEQGRVVGDDNKEYSVWVGSSASLTHMALIHGPAYVGDNSFIGFRSTVFNAKVGAGCIVMMHALIKDVEVPPGKYVPSGAIITNQKQADRLPDVQPQDRDFAHHVIGINQALRAGYLCAADSKCIAPLRNDQVKSYTSTTVIGLERSSEVASNSLGAETIEQVRYLLEQGYKIGSEHVDQRRFRTGSWTSCQPIEARSVGDALAALEACLADHSGEYVRLFGIDPKGKRRVLETIIQRPDGVVAGSTSFKAPASNTNGNGSYHSNGNGNGYSNGATSGKVSAETVDQIRQLLAGGYKIGTEHVDERRFRTGSWNSCKPIEATSAGEVVAALEECIDSHQGEYIRLIGIDPKAKRRVLESIIQRPNGQVAPSSSPRTVVSASSASSGTATATATRLSTEVVDQVRQILGGGYKLSIEHVDQRRFRTGSWSSTGAISATSEREAIAVIEASLSEFAGEYVRLIGIDPKAKRRVLETIIQRP
In the case of B8, the binding entry is reported as “binds”.

B9: CpcG2 (protein, UniProt P29987 1-247)
chain: MSIPLLEYKPSSQNQRVPGYEVPNEDTPRIYRIEDAAYDSELKELIWATYRQVFSEHVILKFFRQGNLESQLKNRAISVRDFVRGLAKSEAFKTLVIKSNSNYRLVELALKRLLGRAPYNKDEEIAWSIKIATNGWDGFVDALLDSEEYQSNFGENIVPYQRRRYKDRPFNLVTPRYGNYWRDKLESERYIEGDIKNFLELAKSIEIKTVTFTPVSTANIKIPDTTRNTTPTGIPISVNPSANFPVR
Take B9: the binding entry is “binds”.

B10: ArgG (protein, UniProt Q8YMX6 1-400)
chain: MGRAKKVVLAYSGGVDTSVCIPYLKQEWGVEEVITLAADLGQGDELEPIREKALKSGASESLVADVKESFIKDYAFPAIQANALYENRYPLGTALARPLIAKILVEAAAKYGADAIAHGCTGKGNDQVRFDVSCTALNPNLKILAPAREWGMSREATIAYGEKFGIPSPVKKSSPYSIDKNLLGRSIEAGALEDPKFEPPEEIYEMTKAIADTPNEPEYIEIGFTQGLPTTLNGIPKDPVALIQELNQVVGSHGVGRIDMIENRLVGIKSREIYESPAMLVLIPAHRDLESLTLTADVSHYKRGIEETYSQIVYNGLWYSPLKAALDAFIQKTQERVSGTVRVKLFKGNATIVGRWSDSSLYTPDLATYGAEDQFDHKAAEGFIYVWGLPTRIWAQQDRG
For B10, the binding result was “binds”.

B11: L23 (protein, UniProt Q8YPI1 1-104)
chain: MAKFDPRNLPDLVRRPILTEKATIMMEQNKYTFEVTPKASKPQIRAAIEDLFQVKVVKVNTALPPRRKKRVGKFIGFKPQYKKAIVTIAPGDVDKIRQVLFPEV
B11: the binding result was “binds”.

B12: Hup (protein, UniProt P05514 1-94)
chain: MNKGELVDAVAEKASVTKKQADAVLTAALETIIEAVSSGDKVTLVGFGSFESRERKAREGRNPKTNEKMEIPATRVPAFSAGKLFREKVAPPKA
Take B12: the binding result is “binds”.

B13: PecC (protein, UniProt P31329 1-278)
chain: MSSSVAERLAIRDAIGNKVELRQNWSEDDLQKVFRAAYEQIFGRQGIYASQKFTSAEALLRNGKISVRQFVEILAKSEFYKECFFYKNSQVRLIELNYKHLLGRAPYDQSEIADHVDIYAARGYDADIDAYIYSSEYENAFGNSIVPYYRGFQSIPGMKTVGFNRICELYRGRGNSDNAQMGRTNSRLRTKVSLNLPNGILPPTSAGTNFVSAAPTLISSATKGDNRMFVIEAIAGGLNTNVAVRRSRQVYTVSYERLSATYQEIHKRGGKIVKISQV
Turning to B13, the binding result is “binds”.

B14: L4 (protein, UniProt Q8YPI0 1-210)
chain: MVESVVKNWQGEQIGQKTFELRVAKETTAAHIVHRALVRQQTNARQGTASTKTRAEVRGGGRKPWRQKGTGRARAGSIRSPLWRGGGVIFGPKPRDFDLKMNRKERRLALRTAFVSRIDDLILVEEFSNELSRPKTKDLVAAFTRWGAEPESKILLILSEFPENVYLSARNIENLKLIAADQLNVYDLLHADKIVVTTSALEKIQEVYNG
Take B14: the binding result is listed as “binds”.

B15: CpcG4 (protein, UniProt P29989 1-253)
chain: MALPLLQYKPSSQNHRVTSFGAADQNEDTPYIYRIEDVSSYTDIQNIIWASYRQVFSEHEILKFNRQKTLESQVKNGSISVRDFIRGLAKSEAFYRLVVSVNNNYRLVDITLKRLLGRSSYNKDEQIAWSIVIGTKGFSGFVDALIDSEEYTKNFGENIVPYQRKRMEGRPHNLVTPRYGEDFQEKAGTVQTDWRFTLDKFYSRKSQEKQLREGDPRKFADLAASVGNQGNYAQRISAFDIDYLNAVPNRSRR
For B15, the binding result is “binds”.

B16: ApcA1 (protein, UniProt P80555 1-161)
chain: MSIVTKSIVNADAEARYLSPGELDRIKSFVAGGQQRLRIAQALTDNRERLVKQAGDQLFQKRPDVVSPGGNAYGQEMTATCLRDLDYYLRLVTYGIVAGDVTPIEEIGVIGVREMYKSLGTPIEAVGEGVRALKNAASTLLSAEDAAEAGSYFDYVVGALQ
Regarding B16, the binding entry is listed as “binds”.

B17: RbpE (protein, UniProt Q9WX37 1-99)
chain: MSIYVGNLSYSVTQDDLTKVFSEYGSVTRVQLPTDRETGRVRGFGFVEMESSAAEDAAIQALDGAEWMGRVLKVNKARPREEKGARSGGGSWSRNNGGY
For B17, the binding result is on record as “binds”.
